Data as given in PubChem BioAssay AID504744 (Drosophila RNAi Screening Center, 2011).
The screen tested about 23,000 reagents; below is a random part of those with a known target gene and a result. Over the whole deposit, 98 (0.43%) are marked active. 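Only hit calls are given; the phospho-dAkt signals, z-scores and hit direction were not deposited.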 Names joined by + are all predicted targets of the reagent.

Purpose: 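Uncover factors, including feedback loops, that control dAkt activation in fly cells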 (primary screen)
System: Drosophila Kc167 cells
Knock-down reagent: long dsRNA against Drosophila genes, 250 ng dsRNA per well of a 384-well plate
Time to read-out: 3 days of knock-down, then overnight serum-free starvation before stimulation
Challenge: bovine insulin at 387 nM for 10 minutes after 12 h without serum
Read-out: 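In-cell antibody fluorescence for phospho-dAkt in each well over DNA-dye signal, with log2 residuals expressed as z-scores adjusted for cell count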
Hit rule: 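Under insulin, a gene counts as a hit if the average z-score of two replicates lies above 2.5 or below -2.5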

target | PubChem SID | Outcome
GstD9 (Glutathione S transferase D9) | SID104193977 | inactive
Gad1 (Glutamic acid decarboxylase 1) | SID104188453 | inactive
Hex-t1 (Hexokinase testis 1) | SID104196493 | inactive
PpD6 (Protein phosphatase D6) | SID104180566 | inactive
CR15280 (pseudo) | SID104181745 | inactive
Dhx15 (DEAH-box helicase 15) | SID104185828 | inactive
Gpdh1 (Glycerol-3-phosphate dehydrogenase 1) | SID104183128 | inactive
Gpdh1 (Glycerol-3-phosphate dehydrogenase 1) | SID104201351 | inactive
CG13101 | SID104181993 | inactive
Acp76A (Accessory gland protein 76A) | SID104189457 | inactive
esg (escargot) | SID104183322 | inactive
TBC1d7 + mRpS24 | SID104194403 | inactive
Cyp305a1 (Cytochrome P450 305a1) | SID104190918 | inactive
pot (papillote) | SID104199642 | inactive
Hmgs (HMG Coenzyme A synthase) | SID104186658 | inactive
Enoph (Enolase-phosphatase) | SID104191993 | inactive
CG14265 | SID104198383 | inactive
Strump (Strumpellin) | SID104189664 | inactive
CG7632 | SID104191634 | inactive
CG5070 | SID104199724 | inactive
Fmo-1 (Flavin-containing monooxygenase 1) | SID104184120 | inactive
CG5346 | SID104195570 | inactive
Tpi (Triose phosphate isomerase) | SID104196680 | inactive
CG8028 | SID104199867 | inactive
CG8509 | SID104199901 | inactive
Socs16D (Suppressor of Cytokine Signaling at 16D) | SID104199879 | inactive
CG17575 | SID104186474 | inactive
sei (seizure) | SID104184505 | inactive
Gem4b + Gem4c + Glos | SID104198036 | inactive
CG33627 | SID104185135 | inactive
Inx2 (Innexin 2) | SID104198575 | inactive
CG2736 | SID104184106 | inactive
dan (distal antenna) | SID104194198 | inactive
SdhB (Succinate dehydrogenase, subunit B (iron-sulfur)) | SID104184810 | inactive
SdhB (Succinate dehydrogenase, subunit B (iron-sulfur)) | SID104201138 | inactive
CG33061 | SID104189730 | inactive
CG33061 | SID104202256 | inactive
tex | SID104196309 | inactive
CG14515 | SID104194659 | inactive
CG17717 | SID104197922 | inactive
phr6-4 ((6-4)-photolyase) | SID104183381 | inactive
LKRSDH (Lysine ketoglutarate reductase/saccharopine dehydrogenase) | SID104182807 | inactive
CG5080 | SID104180469 | inactive
CG42404 | SID104195350 | inactive
CG14995 | SID104188244 | inactive
CG32006 | SID104201435 | inactive
CG7133 | SID104191590 | inactive
CG1441 | SID104186240 | inactive
CadN2 + CG42830 | SID104182854 | inactive
CadN2 + CG42830 | SID104182855 | inactive
CadN2 + CG42830 | SID104182856 | inactive
eloF (elongase F) | SID104194954 | inactive
betaTub60D (beta-Tubulin at 60D) | SID104184465 | inactive
betaTub60D (beta-Tubulin at 60D) | SID104201752 | inactive
Apl (Apollo) | SID104190142 | inactive
CG8157 | SID104186877 | inactive
CG8157 | SID104201302 | inactive
CG11771 | SID104194171 | inactive
Jon99Fii + Jon99Cii + Jon99Ciii + 1 more | SID104195090 | inactive
CR18228 (pseudo) | SID104195109 | inactive
C3G (C3G guanyl-nucleotide exchange factor) | SID104197537 | inactive
C3G (C3G guanyl-nucleotide exchange factor) | SID104197721 | inactive
C3G (C3G guanyl-nucleotide exchange factor) | SID104201829 | inactive
Vm34Ca (Vitelline membrane 34Ca) | SID104183267 | inactive
brat (brain tumor) | SID104183289 | inactive
CG7924 | SID104190723 | inactive
UGP (UDP-glucose pyrophosphorylase) | SID104190203 | inactive
Chc (Clathrin heavy chain) | SID104200021 | inactive
nej (nejire) | SID104197798 | inactive
nej (nejire) | SID104198593 | inactive
mRpL39 (mitochondrial ribosomal protein L39) | SID104190047 | inactive
Galt (Galactose-1-phosphate uridylyltransferase) | SID104182953 | inactive
CG14731 | SID104194744 | inactive
l(2)27Cb (retired record) | SID104182550 | inactive
CG31288 | SID104194459 | inactive
CG10104 | SID104185756 | inactive
Obp51a (Odorant-binding protein 51a) | SID104201886 | inactive
CG7906 | SID104190720 | inactive
CG6465 | SID104195838 | inactive
Cpr67B (Cuticular protein 67B) | SID104190165 | inactive
CG5726 | SID104186738 | inactive
spirit (Serine Protease Immune Response Integrator) | SID104197994 | inactive
CG14739 | SID104194751 | inactive
CG8850 | SID104187079 | inactive
Hinfp (Histone H4 transcription factor) | SID104198276 | inactive
Ugt304A1 (UDP-glycosyltransferase family 304 member A1) | SID104194919 | inactive
Girdin | SID104188084 | inactive
CG31493 | SID104192375 | inactive
Obp83g (Odorant-binding protein 83g) | SID104192061 | inactive
CG3328 | SID104184149 | inactive
wun2 (wunen-2) | SID104187358 | inactive
Tdc2 (Tyrosine decarboxylase 2) | SID104184791 | inactive
Sk1 (Sphingosine kinase 1) | SID104199566 | inactive
CG13386 | SID104182052 | inactive
ced-6 | SID104187383 | inactive
CG4025 | SID104198315 | inactive
His1:CG33816 + His1:CG33828 + His1:CG33819 + 21 more | SID104201058 | inactive
CG15404 | SID104180210 | inactive
CG31715 | SID104201309 | inactive
CG34005 | SID104185492 | inactive
CG5819 | SID104184312 | inactive
CdGAPr (Cd GTPase activating protein-related) | SID104183081 | inactive
Stt3B | SID104196573 | inactive
uri (unconventional prefoldin RPB5 interactor) | SID104183903 | inactive
RpL28 + snoRNA:Or-CD12 | SID104188085 | inactive
capt (capulet) | SID104180468 | inactive
capt (capulet) | SID104180598 | inactive
GstD10 (Glutathione S transferase D10) | SID104195138 | inactive
EMC6 (ER membrane protein complex subunit 6) | SID104194178 | inactive
mtgo (miles to go) | SID104182037 | inactive
mtgo (miles to go) | SID104182038 | inactive
mtgo (miles to go) | SID104182561 | inactive
mtgo (miles to go) | SID104201156 | inactive
mtgo (miles to go) | SID104201412 | inactive
Syx7 (Syntaxin 7) | SID104191555 | inactive
Taf4 (TBP-associated factor 4) | SID104191089 | inactive
CG2004 | SID104197992 | inactive
CG7724 | SID104190697 | inactive
Ref2 (RNA and export factor binding protein 2) | SID104182355 | inactive
btl (breathless) | SID104191123 | inactive
CG15625 | SID104180252 | inactive
Cyp6a21 (Cytochrome P450 6a21) | SID104187173 | inactive
CG2839 | SID104180336 | inactive
Git (G protein-coupled receptor kinase interacting ArfGAP) | SID104186412 | inactive
CG16989 | SID104198327 | inactive
CG4955 | SID104199719 | inactive
CG14720 | SID104194734 | inactive
CG34049 | SID104179896 | inactive
CG14277 | SID104182172 | inactive
Cyp6t1 (Cytochrome P450 6t1) | SID104200356 | inactive
CG18095 | SID104181740 | inactive
CG7173 | SID104191604 | inactive
CG1636 | SID104197903 | inactive
knon (knotted onions) | SID104186841 | inactive
Or83a (Odorant receptor 83a) | SID104192149 | inactive
Cyp6a17 (Cytochrome P450 6a17) | SID104187170 | inactive
sov (small ovary) | SID104197722 | inactive
CAP | SID104185007 | inactive
CAP | SID104186535 | inactive
CAP | SID104186536 | inactive
CAP | SID104186537 | inactive
CAP | SID104186638 | inactive
serp (serpentine) | SID104190827 | inactive
serp (serpentine) | SID104190828 | inactive
CG7271 | SID104201989 | inactive
CG7120 | SID104190565 | inactive
S6KL (S6 Kinase Like) | SID104199141 | inactive
S6KL (S6 Kinase Like) | SID104201288 | inactive
mRpL49 (mitochondrial ribosomal protein L49) | SID104199700 | inactive
CG6656 | SID104195877 | inactive
Idgf3 (Imaginal disc growth factor 3) | SID104183143 | inactive
CG7191 | SID104182814 | inactive
rt (rotated abdomen) | SID104191183 | inactive
CG8192 | SID104186893 | inactive
CG13630 | SID104194423 | inactive
lectin-46Ca | SID104186404 | inactive
unc-5 | SID104185337 | inactive
unc-5 | SID104187503 | inactive
unc-5 | SID104187504 | inactive
